Drawing on PubChem BioAssay AID662 (National Center for Advancing Translational Sciences (NCATS), 2007), this text covers AC50 for 43 compounds.

This is one part of the list. These are further read-outs of the screen, such as a control signal, another cell line or another target. No call is given for them. Compounds called inactive in the main read-out are mostly missing here. Words in brackets tell the shape of the fitted curve; partial curves, single points and poor fits give uncertain potencies.

A short description of the experiment: Cell signaling CRE-BLA (Fsk stim). The conditions noted are these: CHO CRE-bla reporter (cAMP response element driving beta-lactamase), forskolin EC10, beta-lactamase ratio; measured here: 460 nm blue channel. An outline of the steps: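 qHTS titration format; CRE-bla CHO reporter; stimulus EC10 NKH 477, a water-soluble forskolin. Read: CCF4 460/530 nm ratio. Potency expressed as AC50 for activators or inhibitors.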
In general, AC50 refers to the midpoint of the concentration-response curve, whichever way the signal moves. With `CC(C)(C)OC(=O)N1CCC[C@H]1c1nnc(SCc2ccc(Cl)cc2Cl)o1`, the AC50 was 2 µM [rising, partial curve].

On to `O=C(Cc1ccc(-n2cccc2)cc1)N1CCc2ccccc21`, for which the AC50 is 20 µM [rising, single point].

As for `COc1ccc(CCNS(=O)(=O)c2ccc3c(c2)CC(C)N3C(C)=O)cc1OC` (stereo not drawn), the AC50 is 10 µM [rising, single point].

With `Cc1nc(N2CCC(C)CC2)c2oc3ccccc3c2n1`, the AC50 is 10 µM [rising, partial curve].

On to `COc1ccc(-c2cc(=O)c3c(O)cc(O)cc3o2)cc1`, for which the AC50 is 12.6 µM [falling, single point].

Take `COc1cccc(CN2C(=O)CCC2(C)C(=O)NC2CCCCCC2)c1` (stereo not drawn): the AC50 is 15.8 µM [falling, partial curve, poor fit].

For the compound `Cc1c(Cl)cccc1NC(=O)c1cc(-c2ccc(O)cc2)on1`, the AC50 is 10 µM [falling, partial curve].

For the compound `CC(=O)c1ccc(N2C(=O)C3C(C2=O)C(C(=O)c2ccc(Cl)cc2)N2CCCC32)cc1` (stereo not drawn), the half-maximal activity concentration (AC50) is 3.16 µM [falling, single point].

Consider `Cc1ccc(C(=O)N2c3ccc(F)cc3CCC2C)o1` (stereo not drawn), for which the AC50 is 10 µM [rising, partial curve].

For `Cc1ccc(S(=O)(=O)c2c(N)n(NC(=O)c3ccco3)c3nc4ccccc4nc23)cc1`, the AC50 is 3.16 µM [rising, full curve, poor fit].

On to `COc1ccc(-n2nnnc2SCC(=O)Nc2cccc(NC(C)=O)c2)cc1OC`, for which the AC50 is 7.94 µM [rising, partial curve].

With `CCN(CC)CCCNC(=O)CC1Sc2ccccc2NC1=O` (stereo not drawn), the AC50 was 0.251 µM [falling, partial curve].

For `CCCN(Cc1cc2cc(C)ccc2[nH]c1=O)C(=O)c1cccc(OC)c1`, the AC50 was 10 µM [rising, partial curve].

On to `CN(Cc1ccco1)c1cc(-c2cccc(C#N)c2)ncn1`, for which the AC50 is 12.6 µM [rising, single point].

For `O=c1c(-c2ccccc2)nc2cnc(N3CCOCC3)nc2n1C1CC1`, the AC50 is 7.94 µM [rising, partial curve].

Take `CCOC(=O)N1CCN(c2nc(SC)nc3sc4c(c23)CC(C)(C)OC4)CC1`: the concentration at half-maximal activity (AC50) is 12.6 µM [rising, single point].

Regarding `CCOc1ccc2nc(N3CCOCC3)nc(C)c2c1`, the AC50 is 10 µM [rising, partial curve].

`C/C(=N\O)C1/C(=N/O)CC2C1C2(C)C` (stereo not drawn): the AC50 is 0.0251 µM [falling, full curve, poor fit].

For `CCc1nnc(NC(=O)CSc2nc3c(cc2C#N)CCC3)s1`, the AC50 is 0.398 µM [rising, full curve].

Take `Cc1cc(Nc2ccc(F)c(Cl)c2)n2nc(C)nc2n1`: the AC50 is 12.6 µM [rising, partial curve].

Consider `O=C(Nc1ccc2c(c1)OCO2)C1CCCN1C(=O)OCc1ccccc1` (stereo not drawn), for which the half-maximal activity concentration (AC50) was 1 µM [falling, partial curve].

As to `CCNc1ncc2nc(-c3ccc(Cl)cc3)c(=O)n(CCC#N)c2n1`, the AC50 was 2 µM [rising, full curve].

Consider `CCOC(=O)c1c(N)sc(C(=O)N2CCCC2)c1C`, for which the AC50 was 15.8 µM [rising, single point].

On to `COc1ccc(-n2c(=O)c(CCc3ccccc3)nc3cnc(N4CCOCC4)nc32)cc1`, for which the AC50 was 12.6 µM [rising, partial curve].

Turning to `CCCCCc1c(C)nc(N2CCOCC2)[nH]c1=O`, the AC50 is 12.6 µM [rising, single point].

As for `COc1cc2nc(N3CCN(C(=O)c4ccco4)CC3)nc(N)c2cc1OC`, the AC50 is 20 µM [rising, partial curve, poor fit].

Regarding `O=S(=O)(c1ccc(N2CC=C(c3ccccc3)CC2)nc1)N1CCCC1`, the AC50 is 20 µM [rising, single point].

On to `Cc1ccccc1Cn1cc(S(=O)(=O)CC(=O)Nc2nccs2)c2ccccc21`, for which the half-maximal activity concentration (AC50) was 12.6 µM [falling, single point].

Consider `Cc1ccc(OCCn2c(C)c(/C=N/n3cnnc3)c3ccccc32)cc1`, for which the AC50 is 1 µM [rising, full curve].

Consider `CC(C)C1C(C#N)=C(N)SC(N)=C1C#N`, for which the AC50 is 0.398 µM [rising, full curve].

As to `CC(=O)O[C@H]1CC[C@@]2(C)[C@@H](CC[C@@]3(C)[C@H]2C(=O)C=C2[C@H]4C[C@](C)(C(=O)OCCN5CCCCC5)CC[C@]4(C)CC[C@@]23C)C1(C)C`, the AC50 is 12.6 µM [rising, single point].

As to `Cc1ccc(-c2nc3c(=O)n(C)c4ccccc4c3o2)cc1`, the AC50 is 2 µM [rising, single point].

Consider `COC(=O)c1ccccc1NC(=O)C12CCC(C)(C(=O)O1)C2(C)C` (stereo not drawn), for which the AC50 was 12.6 µM [rising, partial curve].

In the case of `COc1cccc(Nc2ncc3nc(C)c(=O)n(C)c3n2)c1`, the concentration at half-maximal activity (AC50) is 15.8 µM [rising, partial curve, poor fit].

In the case of `CC1(C)CC(=O)c2cc(OCC(=O)NCc3cccnc3)ccc2O1`, the AC50 is 10 µM [rising, single point].

As for `Cc1cc(C(=O)CSc2nnc(-c3cccnc3)n2-c2ccccc2F)c(C)n1C`, the AC50 was 5.01 µM [falling, single point].

In the case of `CCOC(=O)c1[nH]c(C)c(C(=O)NCc2ccc(C)cc2)c1C`, the AC50 was 10 µM [rising, partial curve].

As for `CC1(C)Cc2c(sc3c2c(=N)n(Cc2ccco2)c(=O)n3Cc2ccccc2)CO1`, the AC50 was 5.01 µM [rising, partial curve].

For the compound `Cc1ccccc1-c1nnc(SCC(=O)Nc2cccc(C)c2C)o1`, the AC50 is 0.0316 µM [falling, full curve, poor fit].

For `O=C(CSc1ncn[nH]1)Nc1ccc(Cl)c(Cl)c1`, the half-maximal activity concentration (AC50) was 7.94 µM [falling, partial curve].

As for `Cc1nc2ccccc2c(=O)n1/N=C/c1cn(-c2ccccc2)nc1-c1cccs1`, the AC50 is 2.51 µM [rising, full curve].

Regarding `CCn1c(SCC(=O)Nc2cc(C)on2)nnc1-c1ccncc1`, the AC50 was 3.98 µM [falling, single point].

As for `O=C1CC(=O)CC(c2ccccc2Cl)C1`, the AC50 was 0.398 µM [rising, partial curve].
